These results are taken from paper PMC10978903.

Results are given in words; binding and its absence hold for the method and conditions named. In cells and extracts the contact can be indirect. Binding calls can cover weak binding; strength is not graded here. Tags and fused reporters may be left off the sequences shown.

Test [1] addresses T1, Flag-GR50-GFP (poly-glycine-arginine, 50 repeats), lentiviral construct in rat cortical neurons.
T1 sequence: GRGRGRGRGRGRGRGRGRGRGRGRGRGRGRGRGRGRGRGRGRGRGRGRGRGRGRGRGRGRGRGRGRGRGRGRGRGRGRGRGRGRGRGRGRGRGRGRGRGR
Briefly: co-IP; anti-FLAG M2 agarose beads (mouse IgG agarose beads as control); 600 μg lysate of rat cortical neurons in IP buffer (50 mM Tris-HCl pH 7.5, 150 mM NaCl, 0.5% NP-40), 4 °C, 24 h; western blot. A general note: A western blot detects proteins with antibodies after separation by electrophoresis.

For test [2] the target is unchanged. Briefly: co-IP; anti-GFP antibody cross-linked to magnetic beads; lysates of rat cortical neurons transduced with GR50 or GFP; neurons treated with the crosslinker DSP (0.1 mM) before harvest; with or without arsenite (0.5 mM, 30 min); western blot for GFP and Kapβ2.
For test [3], the target named is karyopherin β2 (Kapβ2), endogenous in rat cortical neurons (rat (endogenous in primary cortical neurons)). Briefly: co-IP; reverse co-IP: Kapβ2 antibody cross-linked to magnetic beads (double volume of beads); lysates of rat cortical neurons transduced with GR50; with or without arsenite; western blot.

As for “karyopherin β2 (Kapβ2), endogenous in rat cortical neurons”, the binding entry in test [1] and in test [2] was “binds” throughout.

B1: Flag-GR50-GFP (poly-glycine-arginine, 50 repeats), lentiviral construct in rat cortical neurons (protein)
chain: GRGRGRGRGRGRGRGRGRGRGRGRGRGRGRGRGRGRGRGRGRGRGRGRGRGRGRGRGRGRGRGRGRGRGRGRGRGRGRGRGRGRGRGRGRGRGRGRGRGR
For B1, the binding entry in test [3] is listed as “binds”.
